Results as given in patent US9856290B2 (SUSSEX RESEARCH LABORATORIES INC., priority 2013, dated 2018).
For part of these data: Some peptides are written in HELM: one residue between dots, names in brackets for other building blocks, links after the first $.

Tests used:
[1] = general procedure: Fmoc solid-phase peptide synthesis; H-L-Ser(t-Bu)-2-Cl-Trityl resin; H-L-Ser(sugar)-2-Cl-Trityl resin; HBTU, DIPEA; settings: for final HPLC purity: analytical RP-HPLC
[2] = general procedure: Fmoc solid-phase peptide synthesis; H-L-Ser(Ac7-β-Mal)-2-Cl-Trityl resin; HBTU, DIPEA; settings: whole synthesis
[3] = general procedure: Fmoc solid-phase peptide synthesis; H-L-Ser(t-Bu)-2-Cl-Trityl resin; HBTU, DIPEA; settings: whole synthesis, scale 0.1 mmol
[4] = general procedure: Fmoc solid-phase peptide synthesis; H-L-Ser(Ac4-β-Gal)-2-Cl-Trityl resin; HBTU, DIPEA; settings: whole synthesis
[5] = general procedure: Fmoc solid-phase peptide synthesis; H-L-Ser(Ac4-β-Glc)-2-Cl-Trityl resin; HBTU, DIPEA; settings: whole synthesis
[6] = whole synthesis, scale of the general procedure 0.1 mmol, run 1
[7] = whole synthesis, scale of the general procedure 0.1 mmol, run 2
[8] = whole synthesis, scale of the general procedure 0.1 mmol
[9] = whole synthesis, scale 0.1 mmol

Substance | final HPLC purity [1, 6] [%] | final HPLC purity [1, 7] [%] | isolated yield [1, 8] [%] | isolated mass [3] [mg] | other results
PEPTIDE1{[Pal].K.T.T.K.[Ser(Ac7-b-Mal)]}$$$$V2.0 | 97.8 | >95 | 24 | – | isolated mass [2]: 102 mg
PEPTIDE1{[Pal].K.[Thr(Ac7-b-Mal)].T.K.S}$$$$V2.0 | 99.1 | >97 | – | 90 | isolated yield [1, 9]: 63% yield
Pal-KT(Ac4-β-Glc)TKS-OH (KTTKS; N-palmitoyl; Thr2 O-Ac4-β-Glc; MOD_RES (1)..(1) having an N-terminal palmitoyl; CARBOHYD (2)..(2) glycosylated with per-acetylated beta-glucose; listed as Homo sapiens) | 95.6 | >95 | – | 70 | isolated yield [3]: 62%
Pal-KT(β-Glc)TKS-OH (KTTKS; N-palmitoyl; Thr2 O-β-Glc; MOD_RES (1)..(1) having an N-terminal palmitoyl; CARBOHYD (2)..(2) glycosylated with beta-glucose; listed as Homo sapiens) | – | – | – | – | final HPLC purity ([1]; late stage modification step): 99%
Pal-KTT(Ac7-β-Mal)KS-OH (KTTKS; N-palmitoyl; glycosylated Thr; MOD_RES (1)..(1) having an N-terminal palmitoyl; CARBOHYD (3)..(3) glycosylated with peracetylated beta-maltose; listed as Homo sapiens) | 98.5 | >95 | – | 26 | isolated yield [1, 9]: 18% yield
Pal-KTTKS(Ac4-β-Gal)-OH (N-palmitoyl; Ser5 O-Ac4-β-Gal; MOD_RES (1)..(1) having an N-terminal palmitoyl; CARBOHYD (5)..(5) glycosylated with per-acetylated beta-galactose; listed as Homo sapiens) | 99.6 | >100 | 41 | – | isolated mass [4]: 140 mg
Pal-KTTKS(Ac4-β-Glc)-OH (N-palmitoyl; Ser5 O-Ac4-β-Glc; MOD_RES (1)..(1) having an N-terminal palmitoyl; CARBOHYD (5)..(5) glycosylated with per-acetylated beta-glucose; listed as Homo sapiens) | – | – | 40 | – | final HPLC purity [1, 8]: 99.6%; isolated mass [5]: 136 mg
